Test results taken from article PMC9663509.
No constants are given. Whether binding was seen depends on the method and setting. Binding seen in cells or lysates may run through a third protein. Where a sequence is shown, tags or fusion partners need not be part of it.

Sequences of proteins named here, by UniProt entry; tags and fusion partners are left off.
UniProt P41240: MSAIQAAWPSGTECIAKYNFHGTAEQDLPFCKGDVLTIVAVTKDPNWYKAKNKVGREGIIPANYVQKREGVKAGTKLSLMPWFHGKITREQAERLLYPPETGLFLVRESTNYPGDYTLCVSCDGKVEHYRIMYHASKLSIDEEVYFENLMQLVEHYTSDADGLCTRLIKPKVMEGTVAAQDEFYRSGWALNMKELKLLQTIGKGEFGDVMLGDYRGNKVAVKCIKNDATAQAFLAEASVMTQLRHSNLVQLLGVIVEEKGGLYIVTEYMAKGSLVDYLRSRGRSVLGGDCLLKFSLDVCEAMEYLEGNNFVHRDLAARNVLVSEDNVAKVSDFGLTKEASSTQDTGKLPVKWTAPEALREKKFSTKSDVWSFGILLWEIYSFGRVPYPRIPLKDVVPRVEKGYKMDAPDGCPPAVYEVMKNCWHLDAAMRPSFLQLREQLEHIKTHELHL

Molecular target: C-terminal Src kinase (CSK), FLAG-tagged (UniProt P41240)
Assay: co-IP; HEK293T co-transfected with FLAG-CSK and HA-ACK1 or HA-kd-ACK1; lysates immunoprecipitated with CSK antibody, immunoblotted with ACK1 antibodies

binding: no binding
B1: kinase-dead mutant (K158R) of ACK1, HA-tagged (enzyme, UniProt Q07912 1-1038)
chain: MQPEEGTGWLLELLSEVQLQQYFLRLRDDLNVTRLSHFEYVKNEDLEKIGMGRPGQRRLWEAVKRRKALCKRKSWMSKVFSGKRLEAEFPPHHSQSTFRKTSPAPGGPAGEGPLQSLTCLIGEKDLRLLEKLGDGSFGVVRRGEWDAPSGKTVSVAVRCLKPDVLSQPEAMDDFIREVNAMHSLDHRNLIRLYGVVLTPPMKMVTELAPLGSLLDRLRKHQGHFLLGTLSRYAVQVAEGMGYLESKRFIHRDLAARNLLLATRDLVKIGDFGLMRALPQNDDHYVMQEHRKVPFAWCAPESLKTRTFSHASDTWMFGVTLWEMFTYGQEPWIGLNGSQILHKIDKEGERLPRPEDCPQDIYNVMVQCWAHKPEDRPTFVALRDFLLEAQPTDMRALQDFEEPDKLHIQMNDVITVIEGRAENYWWRGQNTRTLCVGPFPRNVVTSVAGLSAQDISQPLQNSFIHTGHGDSDPRHCWGFPDRIDELYLGNPMDPPDLLSVELSTSRPPQHLGGVKKPTYDPVSEDQDPLSSDFKRLGLRKPGLPRGLWLAKPSARVPGTKASRGSGAEVTLIDFGEEPVVPALRPCAPSLAQLAMDACSLLDETPPQSPTRALPRPLHPTPVVDWDARPLPPPPAYDDVAQDEDDFEICSINSTLVGAGVPAGPSQGQTNYAFVPEQARPPPPLEDNLFLPPQGGGKPPSSAQTAEIFQALQQECMRQLQAPAGSPAPSPSPGGDDKPQVPPRVPIPPRPTRPHVQLSPAPPGEEETSQWPGPASPPRVPPREPLSPQGSRTPSPLVPPGSSPLPPRLSSSPGKTMPTTQSFASDPKYATPQVIQAPGPRAGPCILPIVRDGKKVSSTHYYLLPERPSYLERYQRFLREAQSPEEPTPLPVPLLLPPPSTPAPAAPTATVRPMPQAALDPKANFSTNNSNPGARPPPPRATARLPQRGCPGDGPEAGRPADKIQMAMVHGVTTEECQAALQCHGWSVQRAAQYLKVEQLFGLGLRPRGECHKVLEMFDWNLEQAGCHLLGSWGPAHHKR
